Data: article PMC12667529
Results are given in words; binding and its absence hold for the method and conditions named. Some results given as binding are weak or reduced against the parent protein; the word gives no strength.

Protein sequences, listed by entry. Tags and fused reporters are not part of them.
UniProt Q13148: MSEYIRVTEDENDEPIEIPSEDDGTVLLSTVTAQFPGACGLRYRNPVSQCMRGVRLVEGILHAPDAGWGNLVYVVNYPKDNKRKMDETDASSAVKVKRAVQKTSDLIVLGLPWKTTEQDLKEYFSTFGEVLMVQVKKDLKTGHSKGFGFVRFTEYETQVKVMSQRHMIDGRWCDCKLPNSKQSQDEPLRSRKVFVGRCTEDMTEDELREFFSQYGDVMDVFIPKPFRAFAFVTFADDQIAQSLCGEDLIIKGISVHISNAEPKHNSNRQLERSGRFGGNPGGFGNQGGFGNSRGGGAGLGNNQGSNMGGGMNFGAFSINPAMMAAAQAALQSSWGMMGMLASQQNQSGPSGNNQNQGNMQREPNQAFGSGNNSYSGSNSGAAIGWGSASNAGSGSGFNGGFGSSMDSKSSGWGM
UniProt P21926: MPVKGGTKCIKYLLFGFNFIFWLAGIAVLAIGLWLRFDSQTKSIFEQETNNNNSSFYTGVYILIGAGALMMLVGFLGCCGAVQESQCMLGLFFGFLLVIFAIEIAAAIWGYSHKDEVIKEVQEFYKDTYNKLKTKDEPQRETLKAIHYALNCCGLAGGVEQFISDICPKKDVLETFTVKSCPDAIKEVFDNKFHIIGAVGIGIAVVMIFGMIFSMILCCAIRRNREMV
UniProt P35637: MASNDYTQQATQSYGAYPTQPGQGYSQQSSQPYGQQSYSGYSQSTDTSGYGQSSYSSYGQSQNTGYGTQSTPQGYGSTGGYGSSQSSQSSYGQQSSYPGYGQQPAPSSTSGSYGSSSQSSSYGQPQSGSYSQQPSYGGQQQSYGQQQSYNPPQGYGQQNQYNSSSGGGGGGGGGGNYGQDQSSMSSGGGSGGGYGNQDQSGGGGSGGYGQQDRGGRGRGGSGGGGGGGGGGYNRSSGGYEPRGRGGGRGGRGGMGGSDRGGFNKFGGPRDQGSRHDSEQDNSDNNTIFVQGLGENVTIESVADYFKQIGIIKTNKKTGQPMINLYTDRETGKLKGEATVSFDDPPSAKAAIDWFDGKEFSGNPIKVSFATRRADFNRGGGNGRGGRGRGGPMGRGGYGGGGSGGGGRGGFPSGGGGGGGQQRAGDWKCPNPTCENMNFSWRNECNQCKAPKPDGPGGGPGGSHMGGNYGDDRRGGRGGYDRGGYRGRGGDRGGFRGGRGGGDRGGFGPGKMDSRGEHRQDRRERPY
UniProt P06748: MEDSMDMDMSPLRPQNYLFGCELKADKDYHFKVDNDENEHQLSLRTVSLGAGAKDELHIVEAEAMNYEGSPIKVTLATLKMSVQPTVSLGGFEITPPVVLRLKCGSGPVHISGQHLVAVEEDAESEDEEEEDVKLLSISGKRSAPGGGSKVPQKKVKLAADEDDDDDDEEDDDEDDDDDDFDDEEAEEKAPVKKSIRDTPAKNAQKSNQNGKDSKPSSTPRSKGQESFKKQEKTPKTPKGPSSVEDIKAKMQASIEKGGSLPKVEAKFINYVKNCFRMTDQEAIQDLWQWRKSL

Target: TAR DNA-binding protein 43 (human (endogenous in post-mortem brain)) (UniProt Q13148)
Experiment: single-molecule pulldown (SiMPull); CAP1-SiMPull with colabelling: aggregates of human brain extracts captured on biotinylated CAP1, detected with a fluorescent TDP-43 antibody and a second fluorescent antibody against the protein of interest; spots within a 4-pixel radius counted as colabelled; MND TDP cohort compared with controls

Substance	binding
CD9 (from UniProt P21926 1-228)	binds
FUS (from UniProt P35637 1-526)	binds
nucleophosmin (from UniProt P06748 1-294)	binds
